Assay [1] deals with T1, mouse P2X7 (mouse) (UniProt Q9Z1M0).
T1 sequence: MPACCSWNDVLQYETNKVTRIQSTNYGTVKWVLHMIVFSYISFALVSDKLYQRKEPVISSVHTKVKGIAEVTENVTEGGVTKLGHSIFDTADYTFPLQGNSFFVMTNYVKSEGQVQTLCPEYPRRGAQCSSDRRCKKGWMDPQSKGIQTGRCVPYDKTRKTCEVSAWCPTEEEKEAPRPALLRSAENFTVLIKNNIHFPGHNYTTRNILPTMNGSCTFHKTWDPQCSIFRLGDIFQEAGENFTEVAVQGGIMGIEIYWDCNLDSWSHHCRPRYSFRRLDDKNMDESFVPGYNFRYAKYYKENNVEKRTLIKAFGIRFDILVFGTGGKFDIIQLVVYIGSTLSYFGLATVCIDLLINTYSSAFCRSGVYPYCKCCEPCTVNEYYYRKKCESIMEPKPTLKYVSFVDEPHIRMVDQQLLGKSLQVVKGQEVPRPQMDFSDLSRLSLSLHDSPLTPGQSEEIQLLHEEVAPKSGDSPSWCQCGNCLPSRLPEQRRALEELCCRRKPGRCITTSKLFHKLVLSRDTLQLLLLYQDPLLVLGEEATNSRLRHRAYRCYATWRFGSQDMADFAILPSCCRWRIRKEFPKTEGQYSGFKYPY
Put plainly: flow cytometry dot plots (sideward scatter against anti-myc-FITC), periplasmic extract on mixed Hek293-mP2X7 and untransfected Hek293 cells.

In assay [2] the target is T1, mouse P2X7 (mouse). Put plainly: Table A-1 'P2X7 function'; screening on mP2X7-expressing cells.

Results are given in words; binding and its absence hold for the method and conditions named. Some binding calls cover weakened binding; strength is not graded here.

B1: P2X7PMP5A1 (VHH)
VHH: EVQLVESGGGLVQAGGSLRLSCAASERTYSMGWFRQAPGKEREFVAGSGWDGIPTRYADSVKGRLTISRDNAKNTVSLQMSGLKPEDTAIYYCATGTSVYHYQYWGQGTQVTVSS
Turning to B1, the binding entry in assay [1] and in assay [2] was “binds” each time.
